Data from publication PMC3148253.
No constants are given. Whether binding was seen depends on the method and setting. In cells and extracts the contact can be indirect. Some entries that bind do so weakly or less than the wild type. Where a sequence is shown, tags or fusion partners need not be part of it.

The chains behind the UniProt entries cited, without tags or fusion partners.
UniProt P05549: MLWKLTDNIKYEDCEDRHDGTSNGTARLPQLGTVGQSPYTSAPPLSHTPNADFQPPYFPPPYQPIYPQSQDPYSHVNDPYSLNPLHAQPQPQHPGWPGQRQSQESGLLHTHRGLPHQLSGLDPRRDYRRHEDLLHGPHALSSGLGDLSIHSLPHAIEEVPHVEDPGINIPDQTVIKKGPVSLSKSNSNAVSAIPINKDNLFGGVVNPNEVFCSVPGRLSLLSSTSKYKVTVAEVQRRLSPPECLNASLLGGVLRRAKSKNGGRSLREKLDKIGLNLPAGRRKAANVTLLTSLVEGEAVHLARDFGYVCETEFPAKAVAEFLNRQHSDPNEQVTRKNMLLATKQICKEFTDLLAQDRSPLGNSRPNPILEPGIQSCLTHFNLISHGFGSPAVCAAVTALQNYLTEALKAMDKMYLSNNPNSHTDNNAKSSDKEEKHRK

How the values were obtained:
[1] = molecular target: T1, Aurora-A-GST fusion protein (human) (UniProt O14965); assay: pull-down; Aurora-A-GST or GST alone bound to 15 µl glutathione-sepharose beads for 6 h at 4°C, incubated with protein extracts for 6 h at 4°C; washed 3-5 times with lysis buffer; Western blot for AP-2α; only the target purified
T1 sequence: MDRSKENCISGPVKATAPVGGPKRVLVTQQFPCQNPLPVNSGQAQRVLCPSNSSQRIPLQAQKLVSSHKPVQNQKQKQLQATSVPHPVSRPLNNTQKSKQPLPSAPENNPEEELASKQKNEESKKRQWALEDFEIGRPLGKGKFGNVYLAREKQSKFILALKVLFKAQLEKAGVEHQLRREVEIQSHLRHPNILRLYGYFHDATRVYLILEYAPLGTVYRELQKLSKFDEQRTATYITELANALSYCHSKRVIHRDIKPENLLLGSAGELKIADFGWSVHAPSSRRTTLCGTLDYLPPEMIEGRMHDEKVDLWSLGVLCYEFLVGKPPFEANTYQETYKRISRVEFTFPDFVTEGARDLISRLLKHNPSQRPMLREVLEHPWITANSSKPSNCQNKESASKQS

GFP-Aurora-A (human) = molecular target: T2, GFP-Aurora-A (human) (UniProt O14965); assay: co-IP; 1 mg cellular protein from KYSE150/GFP-Aurora-A cells incubated with 7.5 µg anti-Aurora-A or anti-AP-2α antibody for 6 h at 4°C, then overnight with protein A/G-agarose beads; washed six times with lysis buffer; immunoblot; mouse or rabbit IgG as control
T2 sequence: T1 sequence

[2] = molecular target: AP-2α (human (endogenous in KYSE150)) (UniProt P05549); assay: as above

AP-2α (from UniProt P05549 1-437)
binding [1]: binds
binding (GFP-Aurora-A (human)): binds

B1: GFP-Aurora-A (protein, UniProt O14965 1-403)
chain: T1 sequence
binding [2]: binds
